# Experimental data: PubChem BioAssay AID1259415 (National Center for Advancing Translational Sciences (NCATS), 2018)
# Screen size: about 410,000 compounds; about 18,000 (4.4%) were called active. The shares of active, inactive and inconclusive entries below differ from those in the screen. Cut-off read from the data, not from the text of the source: active = activity change below about -60%; inconclusive = no clear call, values can overlap the other calls; inactive = above about -39%.
# Assay: qHTS Assay for inhibitors of the human cytomegalovirus (HCMV)
# Conditions: HFF cells, HCMV-luciferase reporter, 72 h; at 57.5 µM; hits give low values
# Text: NCGC Assay Overview: Infection with human cytomegalovirus (HCMV) continues to pose significant threats for pregnant women and immunocompromised hosts. HCMV causes serious morbidity and mortality in transplant recipients, and congenital HCMV is the leading infectious cause of mental retardation and deafness in children. In the 1990s, the annual costs associated with the disease burden of congenital CMV were estimated at around $2 billion. A HCMV vaccine is not available yet and HCMV therapies result in intolerable side effects and emergence of drug resistant viruses. […] Towards this goal we have developed and characterized a luciferase HCMV reporter that was initially used in 96 well plates and then optimized to 1536-well plates for utilization in screening of the MLSMR collection, the NGCG diversity collection and the NCGC Pharmaceutical Collection of approved and investigational drugs.
# NCGC Assay Protocol Summary:
# This is a cell-based assay for HCMV inhibition in HFFs cells. The screening used 2 compound doses and the HCMV-luciferase at MOI of 1 PFU/cell. Cells were treated and infected with HCMV. At 72 h post infection cell lysates were collected and luciferase activity was determined using the Glomax-Multi + Detection System (Promega, Madison, WI). Data were normalized to the controls for basal activity (buffer only) and known HCMV inhibitors Salinmoycin.
# 1536-well assay protocol for the assay:
# (1) Add 3 ul CMV/HFF cell culture. 1000 cells/well in DMEM nirmal media.
# (2) Incubate 16 hr at 37C.
# (3) Add 23 nl control compound, 10uM of Salinomycin.
# (4) Add 23 nl compounds in DMSO solution.
# (5) Add 3 ul CMV suspension. Final 1 puf/ul, Virus stock 2000pfu/ul
# (6) Incubate 72 hrs at 37C.
# (7) Add 4 ul OneGlo Luc Reagent.
# (8) Incubate 5 min at room temperature.
# % is set by controls: 0 for no effect and ±100 for the full control effect.
row,Compound,"activity change, negative = inhibition"
1,CC1CCCCC1NC(=O)c1ccc(S(=O)(=O)NNC(=O)c2ccncc2)cc1 (stereo not drawn),inactive: 19.1%
2,N#Cc1cc(-c2ccccc2)nc(NN)n1,inconclusive: -40.4%
3,COCCNC(=O)c1ccc2c(=O)n(Cc3ccco3)c(SCC(=O)NC3CCCCC3)nc2c1,inactive: 0.305%
4,S=C(NCc1ccc(Cl)cc1)Nc1ccncc1,inconclusive: -45%
5,CCN(CC)c1nn2c(=O)c(C(=O)NCc3ccccc3Br)cnc2s1,inactive: 11.3%
6,Cn1ccnc1C(O)(c1nnc(-c2ccccc2)o1)C(F)(F)F (stereo not drawn),inconclusive: -50.3%
7,Cc1cc(Nc2ccccc2)c2c([N+](=O)[O-])cc(C)c(C)c2n1,active: -81%
8,Cc1ccc(-n2nc(C)c3c(C(=O)NCCc4ccc(S(N)(=O)=O)cc4)cc(C)nc32)cc1,inactive: 4.53%
9,O=C(NCc1ccncc1)c1ccc(Cl)c(S(=O)(=O)N2CCCCC2)c1,inconclusive: -42.7%
10,CCOC(=O)C1=C2SCCN2C(=O)C(C#N)C1(C)C (stereo not drawn),inconclusive: -41.2%
11,C[C@@H]1OC(C2CCCCC2)N(C)[C@H]2C[C@H]3c4[nH]c5ccccc5c4CCN3C[C@@H]12 (stereo partly drawn),inconclusive: -51%
12,CC(=O)NCCC1CCN(C(=O)C2CCC(=O)N(C3CCCC3)C2)CC1 (stereo not drawn),inconclusive: 0%
13,COc1ccc(OCC(=O)Nc2c(C(=O)N(CCN(C)C)Cc3ccco3)oc3ccccc23)cc1,inconclusive: -49.2%
14,O=C(O)c1ccc(N2CC3CC(C2)c2cccc(=O)n2C3)c(NS(=O)(=O)c2cccc(C(F)(F)F)c2)c1 (stereo not drawn),inconclusive: -45.5%
15,COCCCn1c(SCC(=O)Nc2ccc(C)cc2)nc2ccccc2c1=O,active: -71.2%
16,COc1ccc(C(=O)N(C)CCCC2CCCC2)cc1OC1CCN(C(C)C)CC1,inactive: -7.78%
17,COc1ccc(OC)c(NC(=O)C(C)n2c(=O)c(-c3ccccc3NC(C)=O)nc3ccccc32)c1 (stereo not drawn),inactive: -1.84%
18,Cc1cccc(-c2cccc(NC(=O)C3CCCN(C(=O)c4csc(C)n4)C3)c2)c1 (stereo not drawn),inconclusive: -43.3%
19,CN(C)c1ncc(C2=C(Cl)C(=O)C(N3CCCC3)=C(Cl)C2=O)s1,active: -63.7%
20,CCC(O)c1nc2ccccc2n1Cc1cc(C)ccc1C (stereo not drawn),inconclusive: -49.4%
21,Cc1c(C(C)C)c(=O)n(-c2ccccc2)n1C,inactive: -3.41%
22,O=C1c2ccccc2C(=O)c2c1cccc2N1CCN(CCO)CC1,inconclusive: -50.5%

row,Compound,"activity change, negative = inhibition"
1,CN(C(=O)CSc1nc2ccccc2n1C)C1CCS(=O)(=O)C1 (stereo not drawn),inconclusive: -40.6%
2,Cc1oc2ccc(O)c(CN3CCCCCC3)c2c1C(=O)Nc1cccc(C(F)(F)F)c1,active: -86%
3,Cc1cc(C)c(NC(=O)CSc2nc3c(c(=O)n2C)SC(C)C3)c(C)c1 (stereo not drawn),inconclusive: -47.7%
4,O=C(Cn1nc(C(F)(F)F)cc1C1CC1)Nc1ccccc1F,inconclusive: -43.7%
5,CC(C)NC(=O)CSc1c2c(nc3ccccc13)CCCC2,active: -71.8%
6,Cc1ccc(NC(=S)Nc2ccc(F)cc2)cc1C,inconclusive: -40.2%
7,CC(=O)Nc1ccc(CNc2nc3cc(-c4ccc(F)cc4)sc3c(=O)n2C)cc1,inconclusive: -56%
8,COc1ccccc1-c1ccc(SCc2ccccc2F)nn1,inactive: -11.1%
9,O=C(NNC(=O)c1cc(-c2ccc(Cl)c(Cl)c2)nc2ccccc12)Nc1ccccc1,inconclusive: -50.7%
10,COCCN(Cc1ccccc1)C(=O)c1cccc(S(=O)(=O)N2CCCc3ccccc32)c1,inconclusive: -51.8%
11,Cc1ccc(NC(=O)c2ccc(C)c(S(=O)(=O)N3CCCCCC3)c2)cc1,inconclusive: -45.8%
12,O=[N+]([O-])c1ccc(NC(=S)NCCc2ccccc2)cc1,active: -96.5%
13,O=c1[nH]nc(Cc2ccc(Cl)cc2Cl)c2ccccc12,inconclusive: -50.9%
14,CCN(CC)c1ccc(C2C(C(N)=O)=C(C)Nc3nc(SCc4ccccc4Cl)nn32)cc1 (stereo not drawn),inconclusive: -47.1%
15,COc1cccc(-c2nc(CS(=O)(=O)CC(=O)Nc3ccc(F)cc3F)c(C)o2)c1,inactive: 25.6%
16,O=C(/C=C/c1ccc(Cl)cc1)c1cccnc1,inactive: -7.76%
17,CCOC(=O)C1=CCC(c2ccc(C)cc2)N(S(=O)(=O)c2ccc(C)cc2)C1 (stereo not drawn),inactive: -25.3%
18,Cc1cccc(C)c1NC(=O)CN(C)CC(=O)Nc1ccc(C#N)c(Cl)c1,inconclusive: -53.1%
19,Cc1cc(C)cc(N2C(=O)NC(=O)/C(=C\C=C\c3ccco3)C2=O)c1,active: -98.8%
20,CN(C)S(=O)(=O)c1ccc(C(=O)Nc2nc(-c3cc4ccccc4o3)cs2)cc1,active: -69.2%
21,COc1ccccc1CC(NC(C)=O)C(=O)NC1CCN(C(=O)c2cccc(Cl)c2)CC1 (stereo not drawn),inactive: -5.63%
